Test system: diabetic rats induced by streptozotocin (STZ)
Assay: Effect on the blood parameter and urinary parameter in diabetic rats induced by streptozotocin (STZ)
Type: in vivo, Wistar (Crj) rats
Details: Compound 1 1 mg/kg p.o., after 2 weeks
Protocol: Wistar (Crj) rats of 9 weeks of age were divided into 5 groups so that there was no bias in urinary albumin excretion. To the 4 groups of the rats was administered intravenously STZ (50 mg/kg). […] After the lapse of 2, 4 and 6 weeks from the start of administration, urine was collected for 24 hours in a metabolic cage to measure a urinary parameter. The blood was collected from the tail vein after 2 and 4 weeks and from the abdominal aorta under anesthesia after 6 weeks to measure a blood parameter.
The results were indicated by the mean±error. In comparison between the Sham group and the STZ-Cont. group, a t-test was made without correspondence, and when the significant level is less than 5%, it is considered as a significant difference. In comparison between the STZ-dose groups of rats, multiple comparison (Dunnett's test) was made respectively without correspondence following the variance analysis of one-way classification. When the significant level is less than 5%, it is considered as a significant difference.

COc1ccccc1Oc1c(NS(=O)(=O)C=Cc2ccccc2)nc(-c2ncccn2)nc1OC [Compound 1, N-[6-Methoxy-5-(2-methoxyphenoxy)-2-(pyrimidin-2-yl)pyrimidin-4-yl]-2-phenylethenesulfonamide]
inhibition of elevation of creatinine clearance (Ccr): there was a tendency that elevation of Ccr after 2 weeks from the start of administration was inhibited

— patent US20040097529A1, “Novel use of arylethene sulfonamide derivative” (priority 2001, published 2004)
